Drawing on PMC10854934, this text covers binding for one substance.

Chains of the proteins cited; added tags and fusions are not shown.
UniProt P49407: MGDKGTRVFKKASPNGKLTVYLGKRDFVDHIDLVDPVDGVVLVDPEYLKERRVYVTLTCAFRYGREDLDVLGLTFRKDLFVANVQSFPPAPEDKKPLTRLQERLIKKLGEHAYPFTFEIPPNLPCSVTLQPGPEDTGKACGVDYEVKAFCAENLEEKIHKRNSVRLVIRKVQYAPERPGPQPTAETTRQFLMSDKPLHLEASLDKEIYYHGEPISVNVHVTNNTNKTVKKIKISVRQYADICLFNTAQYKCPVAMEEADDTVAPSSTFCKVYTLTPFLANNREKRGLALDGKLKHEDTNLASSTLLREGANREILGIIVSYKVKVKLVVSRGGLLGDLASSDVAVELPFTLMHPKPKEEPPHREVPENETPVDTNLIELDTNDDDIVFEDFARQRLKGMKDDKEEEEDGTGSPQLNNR
UniProt P41143: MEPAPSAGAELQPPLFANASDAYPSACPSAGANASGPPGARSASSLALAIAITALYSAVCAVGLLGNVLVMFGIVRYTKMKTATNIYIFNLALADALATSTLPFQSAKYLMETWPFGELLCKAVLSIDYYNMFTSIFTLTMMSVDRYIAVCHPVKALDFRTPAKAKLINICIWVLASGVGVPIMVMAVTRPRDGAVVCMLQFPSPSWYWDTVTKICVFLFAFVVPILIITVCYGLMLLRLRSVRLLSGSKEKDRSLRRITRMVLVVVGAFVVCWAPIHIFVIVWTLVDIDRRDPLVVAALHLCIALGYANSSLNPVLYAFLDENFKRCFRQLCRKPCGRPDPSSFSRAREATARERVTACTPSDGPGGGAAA

For the experiment, the target named is β-arrestin 1 tagged with CFP (CFP-βarr1) (UniProt P49407). Description: co-IP; nuclear extracts (100 μg) of N/TERT-1 keratinocytes overexpressing GFP-DOPr and CFP-βarr1, without or with 100 nM Met-ENK for 5 min; anti-CFP antibody overnight at 4 °C in 50 mM Tris-HCl, 150 mM NaCl, 0.5% NP40; Protein G and Protein A Dynabeads; Western blot for βarr1 and DOPr. On the technique in general: In western blotting, separated proteins are transferred to a membrane and probed.

No constants are given. Whether binding was seen depends on the method and setting. In cells and extracts the contact can be indirect. Some binding calls cover weakened binding; strength is not graded here.

Take “delta-opioid receptor tagged with GFP (DOPr-GFP) (from UniProt P41143 1-372)”: the binding result was “binds”.
